# Measured values reported in the supplement of paper PMC8728848.
# The list shows a part of the results.
# B1: TAL6-6LysM (Trichoderma atroviride) (protein)
# chain: AASKLGVPQPAQRDQVNCQLYAVQPNDNCIDISSKNNITYAQLLSWNPSLSSTCSNLASLNSSSICVSNPKGTFSISSNTVGATDIATTTAPVPSPTLDQTTSRCAKYYQVSDGDDCSHLTAQFAITLKDFIFLNSEVWQNCTNLELGYYYCVEPVGYISTYPGYLPTATTKPFNQTSATSLPYDGDPWARFSSNSSVIPIANGTRVDCYSYVYVKNLTENLFADCWNMASMYEITREELVLWNPSLGNDGSSGSNLSGAEASQVASSIAIPTTAPSSITTNLYTYPCTVAANISYCVALVSSTGALPTNTAPPGPHASGEISNCTAWFAPEAYDTCKSILDIFEMSFANFYKMNPSVGPDCSGLAVGTNYCVSTYPNGEDPNDDWDGDDSIPSISPTGIITPTPTQSGMVSNCNKFYDVHSNDGCSAIASSQHVDLSSLYKWNPAIKTDCSGLQASVYVCIGILTTSMSTTSKLPTTTSKPSTTSKPPTGITTPTPTQSGMVKNCNKFYDVHSGDGCSAIASSQKVNLSSFYLWNPAVKTDCSGLQASVFVCIGTLTTSMSTTTSKLPTTTSKPSTTSKPPTGIITPTPTQNGMVKNCNKFYDVHSGDGCSAIASSQKVNLSSFYLWNPAVKTDCSGLQASVFVCVGTATTTTAAGITTPTPTQSGMVSGCNKFYDVHAGDGCSAIASSQKIALSSLYKWNPAVKTDCSGLQASVYICIGVGNAAAARVTGAAASFLEQKLISEEDLNSAVDHHHHHH
# Assays:
# Experiment in all cases: glycan array binding signal (z-score within array); higher = stronger binding
# Settings in all cases: glycan notation: IUPAC condensed, linker removed
# Gal(b1-4)Glc = biological target: Gal(b1-4)Glc
# Summary of the method: (§1)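 The binding signal is a Z-score computed within each array. Data were drawn from 3228 arrays in the Consortium for Functional Glycomics database, restricted to those with a known protein sequence. Scores were averaged over arrays of the same protein sequence at different concentrations or buffers, and over linkers, and negative values can be taken as non-binding.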
# Gal(b1-4)Glc6S = biological target: Gal(b1-4)Glc6S
# Summary of the method: as §1
# Gal(b1-4)GlcNAc = biological target: Gal(b1-4)GlcNAc
# Summary of the method: as §1
# [1] = biological target: Gal(b1-4)GlcNAc(a1-6)Gal(b1-4)GlcNAc
# Summary of the method: as §1
# Gal(b1-4)GlcNAc(b1-2)Man = biological target: Gal(b1-4)GlcNAc(b1-2)Man
# Summary of the method: as §1
# [2] = biological target: Gal(b1-4)GlcNAc(b1-2)Man(a1-3)Man(b1-4)GlcNAc(b1-4)GlcNAc
# Summary of the method: as §1
# [3] = biological target: Gal(b1-4)GlcNAc(b1-2)Man(a1-3)[Gal(b1-4)GlcNAc(b1-2)Man(a1-6)]Man(b1-4)GlcNAc(b1-4)GlcNAc
# Summary of the method: as §1
# [4] = biological target: Gal(b1-4)GlcNAc(b1-2)Man(a1-3)[Gal(b1-4)GlcNAc(b1-2)Man(a1-6)]Man(b1-4)GlcNAc(b1-4)[Fuc(a1-6)]GlcNAc
# Summary of the method: as §1
# [5] = biological target: Gal(b1-4)GlcNAc(b1-2)Man(a1-3)[Gal(b1-4)GlcNAc(b1-2)Man(a1-6)][Gal(b1-4)GlcNAc(b1-4)]Man(b1-4)GlcNAc(b1-4)[Fuc(a1-6)]GlcNAc
# Summary of the method: as §1
# [6] = biological target: Gal(b1-4)GlcNAc(b1-2)Man(a1-3)[Gal(b1-4)GlcNAc(b1-2)Man(a1-6)][GlcNAc(b1-4)]Man(b1-4)GlcNAc(b1-4)[Fuc(a1-6)]GlcNAc
# Summary of the method: as §1
# [7] = biological target: Gal(b1-4)GlcNAc(b1-2)Man(a1-3)[GlcNAc(b1-2)Man(a1-6)]Man(b1-4)GlcNAc(b1-4)GlcNAc
# Summary of the method: as §1
# [8] = biological target: Gal(b1-4)GlcNAc(b1-2)Man(a1-3)[GlcNAc(b1-4)][Gal(b1-4)GlcNAc(b1-2)Man(a1-6)]Man(b1-4)GlcNAc(b1-4)GlcNAc
# Summary of the method: as §1
# [9] = biological target: Gal(b1-4)GlcNAc(b1-2)Man(a1-3)[Man(a1-6)]Man(b1-4)GlcNAc(b1-4)GlcNAc
# Summary of the method: as §1
# [10] = biological target: Gal(b1-4)GlcNAc(b1-2)Man(a1-6)Man(b1-4)GlcNAc(b1-4)GlcNAc
# Summary of the method: as §1
# [11] = biological target: Gal(b1-4)GlcNAc(b1-2)Man(a1-6)[GlcNAc(b1-2)Man(a1-3)]Man(b1-4)GlcNAc(b1-4)GlcNAc
# Summary of the method: as §1
# [12] = biological target: Gal(b1-4)GlcNAc(b1-2)Man(a1-6)[Man(a1-3)]Man(b1-4)GlcNAc(b1-4)GlcNAc
# Summary of the method: as §1
# [13] = biological target: Gal(b1-4)GlcNAc(b1-2)[Gal(b1-4)GlcNAc(b1-4)]Man(a1-3)[Gal(b1-4)GlcNAc(b1-2)Man(a1-6)]Man(b1-4)GlcNAc(b1-4)GlcNAc
# Summary of the method: as §1
# [14] = biological target: Gal(b1-4)GlcNAc(b1-2)[Gal(b1-4)GlcNAc(b1-4)]Man(a1-3)[Gal(b1-4)GlcNAc(b1-2)[Gal(b1-4)GlcNAc(b1-6)]Man(a1-6)]Man(b1-4)GlcNAc(b1-4)GlcNAc
# Summary of the method: as §1
# [15] = biological target: Gal(b1-4)GlcNAc(b1-2)[Gal(b1-4)GlcNAc(b1-4)]Man(a1-3)[GlcNAc(b1-4)][Gal(b1-4)GlcNAc(b1-2)Man(a1-6)]Man(b1-4)GlcNAc(b1-4)GlcNAc
# Summary of the method: as §1
# [16] = biological target: Gal(b1-4)GlcNAc(b1-2)[Gal(b1-4)GlcNAc(b1-4)]Man(a1-3)[GlcNAc(b1-4)][Gal(b1-4)GlcNAc(b1-2)[Gal(b1-4)GlcNAc(b1-6)]Man(a1-6)]Man(b1-4)GlcNAc(b1-4)GlcNAc
# Summary of the method: as §1
# [17] = biological target: Gal(b1-4)GlcNAc(b1-2)[Gal(b1-4)GlcNAc(b1-6)]Man(a1-6)[Gal(b1-4)GlcNAc(b1-2)Man(a1-3)]Man(b1-4)GlcNAc(b1-4)GlcNAc
# Summary of the method: as §1
# [18] = biological target: Gal(b1-4)GlcNAc(b1-2)[Gal(b1-4)GlcNAc(b1-6)]Man(a1-6)[Gal(b1-4)GlcNAc(b1-2)Man(a1-3)]Man(b1-4)GlcNAc(b1-4)[Fuc(a1-6)]GlcNAc
# Summary of the method: as §1
# [19] = biological target: Gal(b1-4)GlcNAc(b1-2)[Gal(b1-4)GlcNAc(b1-6)]Man(a1-6)[GlcNAc(b1-4)][Gal(b1-4)GlcNAc(b1-2)Man(a1-3)]Man(b1-4)GlcNAc(b1-4)GlcNAc
# Summary of the method: as §1
# [20] = biological target: Gal(b1-4)GlcNAc(b1-2)[Gal(b1-4)GlcNAc(b1-6)]Man(a1-6)[GlcNAc(b1-4)][Gal(b1-4)GlcNAc(b1-2)[Gal(b1-4)GlcNAc(b1-4)]Man(a1-3)]Man(b1-4)GlcNAc(b1-4)[Fuc(a1-6)]GlcNAc
# Summary of the method: as §1
# [21] = biological target: Gal(b1-4)GlcNAc(b1-3)Gal(b1-3)GalNAc
# Summary of the method: as §1
# [22] = biological target: Gal(b1-4)GlcNAc(b1-3)Gal(b1-3)GlcNAc
# Summary of the method: as §1
# [23] = biological target: Gal(b1-4)GlcNAc(b1-3)Gal(b1-4)Glc
# Summary of the method: as §1
# [24] = biological target: Gal(b1-4)GlcNAc(b1-3)Gal(b1-4)GlcNAc
# Summary of the method: as §1
# [25] = biological target: Gal(b1-4)GlcNAc(b1-3)Gal(b1-4)GlcNAc(b1-2)Man(a1-3)[Gal(b1-4)GlcNAc(b1-3)Gal(b1-4)GlcNAc(b1-2)Man(a1-6)]Man(b1-4)GlcNAc(b1-4)GlcNAc
# Summary of the method: as §1
# [26] = biological target: Gal(b1-4)GlcNAc(b1-3)Gal(b1-4)GlcNAc(b1-2)Man(a1-3)[Gal(b1-4)GlcNAc(b1-3)Gal(b1-4)GlcNAc(b1-2)Man(a1-6)]Man(b1-4)GlcNAc(b1-4)[Fuc(a1-6)]GlcNAc
# Summary of the method: as §1
binder,measurement,setting,value
B1,glycan array binding signal (z-score),Gal(b1-4)Glc,0.668
same,glycan array binding signal (z-score),Gal(b1-4)Glc6S,-1.08
same,glycan array binding signal (z-score),Gal(b1-4)GlcNAc,-0.744
same,glycan array binding signal (z-score),[1],-0.177
same,glycan array binding signal (z-score),Gal(b1-4)GlcNAc(b1-2)Man,0.067
same,glycan array binding signal (z-score),[2],-0.341
same,glycan array binding signal (z-score),[3],0.479
same,glycan array binding signal (z-score),[4],-1.43
same,glycan array binding signal (z-score),[5],-1.24
same,glycan array binding signal (z-score),[6],0.551
same,glycan array binding signal (z-score),[7],-0.218
same,glycan array binding signal (z-score),[8],0.569
same,glycan array binding signal (z-score),[9],-1.59
same,glycan array binding signal (z-score),[10],-0.133
same,glycan array binding signal (z-score),[11],-0.648
same,glycan array binding signal (z-score),[12],0.445
same,glycan array binding signal (z-score),[13],0.34
same,glycan array binding signal (z-score),[14],-0.57
same,glycan array binding signal (z-score),[15],-1.11
same,glycan array binding signal (z-score),[16],1.24
same,glycan array binding signal (z-score),[17],-0.31
same,glycan array binding signal (z-score),[18],-1.18
same,glycan array binding signal (z-score),[19],-0.994
same,glycan array binding signal (z-score),[20],0.537
same,glycan array binding signal (z-score),[21],-0.573
same,glycan array binding signal (z-score),[22],-1.82
same,glycan array binding signal (z-score),[23],-0.432
same,glycan array binding signal (z-score),[24],-1.18
same,glycan array binding signal (z-score),[25],-0.047
same,glycan array binding signal (z-score),[26],0.712

# 2 records drawn at random from those above:
binder,measurement,setting,value
B1,glycan array binding signal (z-score),[14],-0.57
same,glycan array binding signal (z-score),[24],-1.18
